Results deposited as PubChem BioAssay AID1259254 (NCATS, 2017)

- Assay: 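Genome-wide screen for genes that prevent DNA re-replication in cancer cells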 (primary screen)
- System: human HCT116 colorectal cancer cells
- Reagent: single siRNA against human genes
- Duration: 3 days
- Read-out: 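Imaged Hoechst DNA stain sorts each cell into a cycle phase by DNA amount; per plate, G2 fraction set to 0% for non-targeting and 100% for GMNN siRNA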
- Direction: G2 robust z-score: higher = more G2 cells, more excess DNA replication
- Active means: 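An siRNA counts as active if its G2 robust z-score lies at least 5 MADs above the screen median; here such calls match roughly 38% of GMNN control or more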
In all, the deposit lists about 59,000 reagents; shown is a part drawn at random. In the full data, about 1,550 (2.6%) got an active call. 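G2 share is only a proxy for re-replication; each gene was hit by three separate siRNAs, and active genes were retested.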 The numbers tell different reagents against one gene apart. Further read-outs or replicates are left out here. Reagent sequences are not shown. Not given: the amount of reagent.

gene knocked down,reagent no.,G2 robust z-score,activity call
NPTN,1,2.98,inactive
NPTN,2,-0.405,inactive
NPTN,3,-0.472,inactive
PCIF1,1,-0.669,inactive
PCIF1,2,1.71,inactive
PCIF1,3,0.148,inactive
PTRHD1,1,0.594,inactive
PTRHD1,2,3.73,inactive
PTRHD1,3,-1.2,inactive
JAK2,1,0.046,inactive
JAK2,2,1.23,inactive
JAK2,3,-1,inactive
ZNF230,1,1.52,inactive
ZNF230,2,-0.465,inactive
ZNF230,3,-0.927,inactive

4 of these entries in another layout:
{"gene knocked down":"JAK2","reagent no.":2,"G2 robust z-score":1.23,"activity call":"inactive"}
{"gene knocked down":"JAK2","reagent no.":3,"G2 robust z-score":-1,"activity call":"inactive"}
{"gene knocked down":"ZNF230","reagent no.":1,"G2 robust z-score":1.52,"activity call":"inactive"}
{"gene knocked down":"ZNF230","reagent no.":2,"G2 robust z-score":-0.465,"activity call":"inactive"}

Next results:
gene knocked down,reagent no.,G2 robust z-score,activity call
DQX1,1,0.018,inactive
DQX1,2,-1.11,inactive
DQX1,3,0.909,inactive
GATC,1,0.465,inactive
GATC,2,1.79,inactive
GATC,3,0.8,inactive
SLC11A2,1,-1.81,inactive
SLC11A2,2,-0.904,inactive
SLC11A2,3,1.12,inactive
ALOX5,1,-0.775,inactive
ALOX5,2,-0.469,inactive
ALOX5,3,0.232,inactive
SLC46A3,1,-0.908,inactive
SLC46A3,2,0.0984,inactive
SLC46A3,3,2.37,inactive
